## Results of single-concentration screens

Amino acid sequences for entries named in this document (tags omitted). Residues count along the entry.
UniProt Q8IDJ8, 1-583: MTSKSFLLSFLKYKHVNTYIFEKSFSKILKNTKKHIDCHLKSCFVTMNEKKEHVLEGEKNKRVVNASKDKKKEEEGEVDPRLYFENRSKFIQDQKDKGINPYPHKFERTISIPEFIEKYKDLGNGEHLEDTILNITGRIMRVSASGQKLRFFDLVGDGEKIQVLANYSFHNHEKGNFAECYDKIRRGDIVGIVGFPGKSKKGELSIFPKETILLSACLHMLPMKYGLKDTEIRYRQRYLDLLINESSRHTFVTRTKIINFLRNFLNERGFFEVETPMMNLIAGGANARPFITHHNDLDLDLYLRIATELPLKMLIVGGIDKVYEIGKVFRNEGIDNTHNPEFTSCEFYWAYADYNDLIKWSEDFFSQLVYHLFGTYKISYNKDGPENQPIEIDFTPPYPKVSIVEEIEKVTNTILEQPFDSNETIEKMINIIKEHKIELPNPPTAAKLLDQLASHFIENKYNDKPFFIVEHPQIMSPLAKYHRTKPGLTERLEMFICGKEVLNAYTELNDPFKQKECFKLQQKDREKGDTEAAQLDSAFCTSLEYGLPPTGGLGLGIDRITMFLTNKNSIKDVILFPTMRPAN

Measurements from “University of Dundee, Small-Polar-MMV Screening Library” (2021), ChEMBL document CHEMBL3988442.

Values are the deposited “Percent Effect”, in %. How 0% and 100% were set is not recorded. Most values in the screen are low, and negative values occur. Compounds were drawn at random from those tested, without regard to their results.

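Enzyme assay of the cytosolic lysyl-tRNA synthetase in 384-well plates, read by luminescence. Target: Lysine-tRNA ligase, Plasmodium falciparum 3D7 (UniProt Q8IDJ8). Compounds at 30 µM. Higher reads as stronger inhibition, judged from the few compounds that gave an IC50. About 69,000 compounds were tested under these conditions; 0.071% (about 49) showed 50% or more at least once.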

With CC1CCN(C(=O)[C@H]2CC[C@@H]3[C@@H](CCN3Cc3nccs3)O2)CC1 the screen gave 1.593%. With CCSCCC(C)N(C)C(=O)c1ccc(C)o1 (stereo not drawn) the screen gave 5.818%. COc1ncccc1NC(=O)N(Cc1ccco1)C1CC1 read 1.77%. For O=C(NCc1ccco1)[C@@H]1CCO[C@@H]2CCN(C3CCOCC3)C[C@H]21 the result was 4.609%. For COCC(=O)N1CCC(c2ccc(OC)cc2)C1 (stereo not drawn) the result was 5.492%. For CC(=O)Nc1ccc(CCC2(NC(=O)C3CC3)CCCCC2)cn1 the result was 0.82%. For Cc1sc2ncc(-c3ccnc(NC4CCN(C)CC4)n3)c(=O)n2c1C the result was 0.1011%.

O=C1CCCN1C1CCCN(CCOc2ccc(F)cc2)C1 (stereo not drawn) read 2.133%. Cc1ccn(CCNc2ncnc3c2CCN(S(C)(=O)=O)CC3)n1 read 1.925%. Result for COc1cccc(-n2nc(C(C)=O)c(C(C)=O)c2C)c1 was -3.554%. With O=C(c1ccnnc1)N1C[C@H]2CCC[C@@]2(COCc2ccccn2)C1 the screen gave 8.174%. Result for CCC1COC2(CCN(C(=O)c3ccco3)CC2)C1 (stereo not drawn) was 2.351%. With COCC(O)CN(C)c1ccnc2cc(F)ccc12 (stereo not drawn) the screen gave -2.129%. CCc1ccc(OCCN(C)C(=O)c2ccncc2Cl)cc1 gave 2.062%.

CC(C)c1nnc2n1CCN(Cc1ccc3c(c1)OCO3)CC2 gave 1.041%. For Cc1cc(F)ccc1-c1ccccc1CC1CNCCNC1=O (stereo not drawn) the result was 1.203%. For Cc1cccn2cc(CNCc3cccc4c3OCCCO4)nc12 the result was 7.446%. Result for CCCc1noc(C2CC(=O)N(CCN(C)C)C2)n1 (stereo not drawn) was 0.3551%. O=S(=O)(Cc1cccc(Cl)c1)CC(O)Cn1cccn1 (stereo not drawn) gave 5.123%. For CC(=O)c1csc(-c2csc(Cn3ccc(=O)[nH]c3=O)n2)c1 the result was 7.022%. CN(C)c1ccc(C(=O)N2CCCC(n3cccn3)C2)cn1 (stereo not drawn) read -3.248%.

With O=C(c1cc2c(s1)CCC2)N1CCCC1Cn1cccn1 (stereo not drawn) the screen gave -1.114%. COc1ccc(CN2CC(O)CN(C(=O)CC(C)C)CC2=O)cc1 (stereo not drawn) read 9.419%. Cc1ncccc1C(=O)NCC(C)Oc1ccc(F)cc1 (stereo not drawn) read -5.073%. Cc1cc(N2CCN(Cc3ccsc3)C(CCO)C2)nc(N)n1 (stereo not drawn) read 1.1%. CCNc1ncc2c(n1)CN(c1ccc(Cl)cc1)C2=O read 10.42%. For CN1CCN(S(C)(=O)=O)c2ccc(F)cc21 the result was 3.603%. For COc1ccccc1CNC(=O)CN(C)C(C)c1ccon1 (stereo not drawn) the result was 4.13%.

CNC(=O)C1(CCCc2cnccn2)CCN1CCc1ccccc1 (stereo not drawn) read 0.08537%. Nc1nc(N)c2c(n1)OC1(CCN(C(=O)CC3CCCNC3)CC1)C2 (stereo not drawn) gave 0.3844%. CCc1ncnc(N2CCOCC2C(N)=O)c1F (stereo not drawn) read -1.031%. Result for Cc1nc(C(=O)N2CCN(S(C)(=O)=O)CC2)c(-c2ccccc2)s1 was 5.803%. With Cc1cc(CCC(N)=O)cc(C2CCCN2Cc2ccccn2)n1 (stereo not drawn) the screen gave 0.8139%. CC(C)N(C)C(=O)C1=NOC2(CCN(C(=O)c3ccnnc3)C2)C1 (stereo not drawn) read -20.23%. Cc1cccc(CN2CCc3onc(Cn4cccc4)c3C2)n1 read 2.913%.

Cc1ccc(C)c(Oc2ccc(CNC(=O)C3CCC(=O)N3)cn2)c1 (stereo not drawn) read -3.373%. Result for CCN(Cc1cccc(Cl)c1)Cc1nc2c(cnn2C)c(=O)[nH]1 was 5.556%. For Nc1ncccc1CN1C[C@@H]2CC[C@H](C1)N(CC1CC1)C2=O the result was -3.321%. CN1CCOC(CNCCOc2cccc(C#N)c2)C1 (stereo not drawn) gave -0.8422%. For COCC(=O)N1CCC2(CCC2NS(=O)(=O)c2ccccc2)CC1 (stereo not drawn) the result was 4.959%. Cc1cccc(NC(=O)c2ccc(-n3cncn3)nn2)n1 read 2.999%. CC1=N[C@@]2(CC[C@@H]3CN(C(=O)Nc4ccc(F)cc4)C[C@@H]32)C(=O)N1C read -0.3802%.

CCn1nnnc1-c1cccc(NC(=O)COC2CCCC2)c1 read -6.875%. Result for COCCN(C)C(C(=O)O)c1ccc2ccccc2c1 (stereo not drawn) was -1.995%. CCCc1cc(NCCn2cccn2)n2ncnc2n1 gave 1.505%. For Cc1nc(C2CCCN2C(=O)COCCOc2ccccc2)no1 (stereo not drawn) the result was -6.234%. For CN(CCO)C(=O)Nc1ccn(-c2cccc(C(F)(F)F)c2)n1 the result was 2.809%. Result for Cc1noc(-c2ccc(N3CCCC(C(=O)c4nccn4C)C3)nc2)n1 (stereo not drawn) was 7.833%. With CN(CC(=O)N1CCOC(CCc2ccccc2)C1)Cc1ccccn1 (stereo not drawn) the screen gave 0.787%.

For CN1CCc2ccc(NCc3cccs3)cc2C1=O the result was 0.719%. Result for O=C(c1cc[nH]n1)N1CCCC1c1cc(Nc2ccccn2)n[nH]1 (stereo not drawn) was 0.7445%. CN(c1ccncn1)C1CC2(CCN(C(=O)c3ccsc3)C2)C1 (stereo not drawn) gave -1.227%. COc1cc(N2CC[C@H]3OCC[C@@]3(COc3nccc(C)n3)C2)ncn1 read 0.3194%. O=C(c1cc[nH]n1)N1CCCC(c2cc(C(F)(F)F)[nH]n2)C1 (stereo not drawn) read -1.376%. Cc1ccc(N2CCCC(N(C)c3nn4cc(C)nc4s3)C2)nn1 (stereo not drawn) gave 3.016%. With COCC(=O)N1CCC2(CC(=O)N(c3cccc(F)c3)C2)C1 (stereo not drawn) the screen gave 3.936%.

5 of the entries, repeated:

{"compound": "COc1ncccc1NC(=O)N(Cc1ccco1)C1CC1", "Percent Effect": 1.77}
{"compound": "O=C(NCc1ccco1)[C@@H]1CCO[C@@H]2CCN(C3CCOCC3)C[C@H]21", "Percent Effect": 4.609}
{"compound": "COCCN(C)C(C(=O)O)c1ccc2ccccc2c1", "stereo": "stereo not drawn", "Percent Effect": -1.995}
{"compound": "COc1cc(N2CC[C@H]3OCC[C@@]3(COc3nccc(C)n3)C2)ncn1", "Percent Effect": 0.3194}
{"compound": "O=C(c1ccnnc1)N1C[C@H]2CCC[C@@]2(COCc2ccccn2)C1", "Percent Effect": 8.174}